Data published in patent US20090137484A1, “Neuronal Network-Interacting Peptide” (NATIONAL UNIVERSITY OF SINGAPORE, priority 2004, published 2009).
No constants are given. Whether binding was seen depends on the method and setting. Some binding calls cover weakened binding; strength is not graded here.

The chains behind the UniProt entries cited, without tags or fusion partners. Residues count along the entry.
UniProt O43639, residues 199-257: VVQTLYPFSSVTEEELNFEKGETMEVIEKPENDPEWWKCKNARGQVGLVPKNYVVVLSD

Tests used:
[1] = biological target: third Grb4 SH3 domain, Grb4 residues 199-257 (human) (UniProt O43639); test: ITC
[2] = biological target: third Grb4 SH3 domain, Grb4 residues 199-257 (human) (UniProt O43639); test: NMR HSQC titration

binding [1]	binding [2]	Binder
binds	binds	ARPPPPPPAS (N-terminal acetyl (Ac-), C-terminal amide (-NH2)) [Nogo-A (141-150) Ac-…-NH2]
binds	binds	STPAAPKRRGS (N-terminal acetyl (Ac-), C-terminal amide (-NH2)) [Nogo-A (171-181) Ac-…-NH2]
